The text below walks through data of patent US20070015132A1 (priority 2001, published 2007).

This assay relates to Mouse fibroblast cells (ATCC CRL-10225). Type of assay: cell-based.

Regarding `[F-].[Na+]` [fluoride, sodium fluoride], the “effect on medium acidification rate” value was “inhibit”.
